# In PMC9908615:
# Amino acid sequences for entries named in this document (tags omitted). A change or cut given only in a name is not applied to a line headed by its entry. Residues count along the entry.
# UniProt Q7Z494: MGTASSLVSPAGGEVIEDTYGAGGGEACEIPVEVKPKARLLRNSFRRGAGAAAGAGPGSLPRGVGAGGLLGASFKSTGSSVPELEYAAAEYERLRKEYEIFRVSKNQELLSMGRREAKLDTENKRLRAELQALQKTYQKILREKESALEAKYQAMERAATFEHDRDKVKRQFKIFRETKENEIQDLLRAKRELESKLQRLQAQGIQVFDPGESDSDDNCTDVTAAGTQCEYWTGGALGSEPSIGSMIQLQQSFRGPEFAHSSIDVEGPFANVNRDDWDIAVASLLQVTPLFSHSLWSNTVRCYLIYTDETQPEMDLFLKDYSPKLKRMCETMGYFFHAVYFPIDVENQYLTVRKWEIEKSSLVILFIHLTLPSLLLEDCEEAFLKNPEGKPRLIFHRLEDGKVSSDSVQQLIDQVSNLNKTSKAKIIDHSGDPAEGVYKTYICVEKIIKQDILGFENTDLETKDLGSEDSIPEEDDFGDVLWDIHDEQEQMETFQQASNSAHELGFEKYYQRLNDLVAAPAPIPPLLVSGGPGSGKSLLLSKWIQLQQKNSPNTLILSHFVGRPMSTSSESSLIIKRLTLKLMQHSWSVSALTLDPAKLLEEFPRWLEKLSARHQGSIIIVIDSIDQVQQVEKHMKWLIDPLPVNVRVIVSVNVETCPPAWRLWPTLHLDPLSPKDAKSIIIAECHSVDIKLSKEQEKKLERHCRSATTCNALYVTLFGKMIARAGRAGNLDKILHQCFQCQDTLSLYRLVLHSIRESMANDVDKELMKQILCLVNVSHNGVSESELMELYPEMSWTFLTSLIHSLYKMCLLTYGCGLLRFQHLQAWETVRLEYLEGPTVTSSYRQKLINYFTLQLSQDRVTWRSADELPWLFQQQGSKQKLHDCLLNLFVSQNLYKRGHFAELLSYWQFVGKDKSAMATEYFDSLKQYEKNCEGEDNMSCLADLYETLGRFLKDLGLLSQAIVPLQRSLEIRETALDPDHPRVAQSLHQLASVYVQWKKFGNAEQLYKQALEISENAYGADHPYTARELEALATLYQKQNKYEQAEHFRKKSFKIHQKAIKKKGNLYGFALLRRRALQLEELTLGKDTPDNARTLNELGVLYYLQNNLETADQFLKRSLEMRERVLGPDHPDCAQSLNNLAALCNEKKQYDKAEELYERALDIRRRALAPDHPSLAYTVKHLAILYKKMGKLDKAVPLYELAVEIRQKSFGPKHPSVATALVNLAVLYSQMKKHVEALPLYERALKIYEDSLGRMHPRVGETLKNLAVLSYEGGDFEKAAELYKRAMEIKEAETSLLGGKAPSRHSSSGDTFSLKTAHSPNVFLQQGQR
# UniProt Q01705, residues 19-2531: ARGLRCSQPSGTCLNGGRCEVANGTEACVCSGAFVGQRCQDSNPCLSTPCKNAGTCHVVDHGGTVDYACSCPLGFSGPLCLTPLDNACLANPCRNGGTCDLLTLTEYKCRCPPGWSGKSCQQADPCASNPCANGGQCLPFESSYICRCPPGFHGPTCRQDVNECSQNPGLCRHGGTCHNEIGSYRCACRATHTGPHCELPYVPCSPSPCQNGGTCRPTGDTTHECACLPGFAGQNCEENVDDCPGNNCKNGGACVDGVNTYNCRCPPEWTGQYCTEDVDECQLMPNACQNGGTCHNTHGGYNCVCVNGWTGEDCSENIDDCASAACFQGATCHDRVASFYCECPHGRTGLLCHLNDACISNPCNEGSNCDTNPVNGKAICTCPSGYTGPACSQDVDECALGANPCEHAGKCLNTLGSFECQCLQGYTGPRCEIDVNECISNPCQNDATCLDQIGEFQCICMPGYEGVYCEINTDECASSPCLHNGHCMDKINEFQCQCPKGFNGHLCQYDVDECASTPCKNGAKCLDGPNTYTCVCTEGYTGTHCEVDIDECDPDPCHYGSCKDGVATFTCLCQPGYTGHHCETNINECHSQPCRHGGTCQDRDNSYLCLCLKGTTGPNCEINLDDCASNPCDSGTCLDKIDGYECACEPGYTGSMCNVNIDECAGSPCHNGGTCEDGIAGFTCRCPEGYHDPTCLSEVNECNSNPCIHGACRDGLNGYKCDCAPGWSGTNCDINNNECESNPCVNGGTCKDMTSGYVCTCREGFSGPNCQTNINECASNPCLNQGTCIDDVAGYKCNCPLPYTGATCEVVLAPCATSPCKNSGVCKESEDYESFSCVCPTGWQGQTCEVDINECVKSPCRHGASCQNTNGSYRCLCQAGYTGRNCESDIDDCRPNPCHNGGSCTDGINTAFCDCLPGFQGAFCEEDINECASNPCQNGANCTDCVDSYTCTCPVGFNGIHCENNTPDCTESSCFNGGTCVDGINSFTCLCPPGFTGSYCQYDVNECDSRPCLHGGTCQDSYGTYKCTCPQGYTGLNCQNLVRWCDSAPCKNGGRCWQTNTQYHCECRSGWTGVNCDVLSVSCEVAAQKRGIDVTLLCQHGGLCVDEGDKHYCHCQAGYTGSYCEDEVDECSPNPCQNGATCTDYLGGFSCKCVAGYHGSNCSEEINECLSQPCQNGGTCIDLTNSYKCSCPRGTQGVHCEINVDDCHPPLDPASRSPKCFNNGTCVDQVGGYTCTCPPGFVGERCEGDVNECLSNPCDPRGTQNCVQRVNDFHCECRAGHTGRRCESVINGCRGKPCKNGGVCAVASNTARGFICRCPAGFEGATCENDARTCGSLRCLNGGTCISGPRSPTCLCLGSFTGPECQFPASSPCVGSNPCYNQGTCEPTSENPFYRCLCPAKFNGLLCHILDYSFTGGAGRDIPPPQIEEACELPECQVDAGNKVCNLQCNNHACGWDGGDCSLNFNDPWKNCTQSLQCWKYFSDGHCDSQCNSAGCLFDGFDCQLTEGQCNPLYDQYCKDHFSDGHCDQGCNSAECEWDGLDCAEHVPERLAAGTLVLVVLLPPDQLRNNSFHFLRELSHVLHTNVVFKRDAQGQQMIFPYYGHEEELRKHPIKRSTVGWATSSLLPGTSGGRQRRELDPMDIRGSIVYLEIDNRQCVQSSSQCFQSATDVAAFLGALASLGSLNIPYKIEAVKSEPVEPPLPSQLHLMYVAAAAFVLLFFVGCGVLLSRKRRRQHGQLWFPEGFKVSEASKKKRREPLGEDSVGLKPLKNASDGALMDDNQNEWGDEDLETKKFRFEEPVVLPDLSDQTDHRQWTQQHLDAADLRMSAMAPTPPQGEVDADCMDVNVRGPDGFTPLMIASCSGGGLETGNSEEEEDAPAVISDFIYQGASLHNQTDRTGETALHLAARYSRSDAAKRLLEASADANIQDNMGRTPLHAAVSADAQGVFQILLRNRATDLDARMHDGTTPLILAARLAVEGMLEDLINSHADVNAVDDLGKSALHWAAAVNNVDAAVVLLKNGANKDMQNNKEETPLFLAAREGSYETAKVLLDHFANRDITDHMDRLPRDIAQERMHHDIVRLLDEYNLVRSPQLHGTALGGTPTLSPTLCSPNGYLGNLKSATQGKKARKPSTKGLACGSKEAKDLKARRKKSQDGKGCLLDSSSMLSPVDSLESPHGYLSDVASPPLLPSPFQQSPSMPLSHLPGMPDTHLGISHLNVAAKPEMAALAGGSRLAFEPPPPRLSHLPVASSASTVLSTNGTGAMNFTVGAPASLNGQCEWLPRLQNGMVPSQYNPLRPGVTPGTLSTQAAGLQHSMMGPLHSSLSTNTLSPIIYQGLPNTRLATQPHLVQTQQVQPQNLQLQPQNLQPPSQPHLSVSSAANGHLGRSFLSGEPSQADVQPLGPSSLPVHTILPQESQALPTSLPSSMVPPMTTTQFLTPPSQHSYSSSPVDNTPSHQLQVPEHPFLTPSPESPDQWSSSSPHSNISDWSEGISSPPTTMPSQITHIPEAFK
# UniProt Q61194: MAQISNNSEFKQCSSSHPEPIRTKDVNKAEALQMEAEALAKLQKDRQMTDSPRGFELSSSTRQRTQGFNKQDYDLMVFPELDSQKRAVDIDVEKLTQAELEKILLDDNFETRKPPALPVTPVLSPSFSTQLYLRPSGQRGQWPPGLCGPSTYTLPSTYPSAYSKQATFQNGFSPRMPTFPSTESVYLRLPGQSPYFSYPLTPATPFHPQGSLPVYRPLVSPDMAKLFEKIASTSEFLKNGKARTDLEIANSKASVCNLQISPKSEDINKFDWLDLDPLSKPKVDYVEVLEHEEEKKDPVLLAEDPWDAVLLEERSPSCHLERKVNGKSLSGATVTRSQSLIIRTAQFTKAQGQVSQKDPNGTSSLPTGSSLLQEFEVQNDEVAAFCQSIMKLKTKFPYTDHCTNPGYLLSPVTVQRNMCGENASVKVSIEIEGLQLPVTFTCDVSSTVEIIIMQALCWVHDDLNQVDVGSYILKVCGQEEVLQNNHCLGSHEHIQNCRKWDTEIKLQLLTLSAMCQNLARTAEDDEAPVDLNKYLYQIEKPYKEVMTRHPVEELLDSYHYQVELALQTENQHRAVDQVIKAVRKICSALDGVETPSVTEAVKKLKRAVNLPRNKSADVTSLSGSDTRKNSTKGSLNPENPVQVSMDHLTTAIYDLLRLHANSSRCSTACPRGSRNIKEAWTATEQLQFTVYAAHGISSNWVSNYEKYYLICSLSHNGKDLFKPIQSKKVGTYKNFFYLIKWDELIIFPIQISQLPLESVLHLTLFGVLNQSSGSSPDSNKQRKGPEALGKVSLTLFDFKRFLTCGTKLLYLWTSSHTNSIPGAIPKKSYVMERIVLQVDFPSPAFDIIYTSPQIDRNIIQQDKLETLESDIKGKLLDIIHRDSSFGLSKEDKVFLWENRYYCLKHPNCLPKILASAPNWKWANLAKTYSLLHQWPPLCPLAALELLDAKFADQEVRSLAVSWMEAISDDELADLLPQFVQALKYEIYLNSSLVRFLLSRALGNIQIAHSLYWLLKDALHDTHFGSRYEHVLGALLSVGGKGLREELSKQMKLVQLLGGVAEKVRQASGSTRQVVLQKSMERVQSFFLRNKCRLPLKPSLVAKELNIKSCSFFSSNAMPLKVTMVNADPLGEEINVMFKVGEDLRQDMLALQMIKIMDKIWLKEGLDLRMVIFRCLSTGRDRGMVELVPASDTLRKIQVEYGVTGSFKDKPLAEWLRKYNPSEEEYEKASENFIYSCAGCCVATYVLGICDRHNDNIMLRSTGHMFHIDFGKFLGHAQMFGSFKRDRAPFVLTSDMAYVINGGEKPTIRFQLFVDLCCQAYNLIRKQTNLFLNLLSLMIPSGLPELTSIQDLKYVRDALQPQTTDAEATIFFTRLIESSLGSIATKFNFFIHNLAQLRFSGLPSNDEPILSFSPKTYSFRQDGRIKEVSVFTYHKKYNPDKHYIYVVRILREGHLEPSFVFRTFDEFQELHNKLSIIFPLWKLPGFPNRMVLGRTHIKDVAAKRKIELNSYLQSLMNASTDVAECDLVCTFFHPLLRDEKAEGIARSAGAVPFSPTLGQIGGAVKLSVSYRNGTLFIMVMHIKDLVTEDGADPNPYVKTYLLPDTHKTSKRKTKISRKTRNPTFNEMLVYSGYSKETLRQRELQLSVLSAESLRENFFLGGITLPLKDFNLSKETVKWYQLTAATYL
# UniProt Q04207: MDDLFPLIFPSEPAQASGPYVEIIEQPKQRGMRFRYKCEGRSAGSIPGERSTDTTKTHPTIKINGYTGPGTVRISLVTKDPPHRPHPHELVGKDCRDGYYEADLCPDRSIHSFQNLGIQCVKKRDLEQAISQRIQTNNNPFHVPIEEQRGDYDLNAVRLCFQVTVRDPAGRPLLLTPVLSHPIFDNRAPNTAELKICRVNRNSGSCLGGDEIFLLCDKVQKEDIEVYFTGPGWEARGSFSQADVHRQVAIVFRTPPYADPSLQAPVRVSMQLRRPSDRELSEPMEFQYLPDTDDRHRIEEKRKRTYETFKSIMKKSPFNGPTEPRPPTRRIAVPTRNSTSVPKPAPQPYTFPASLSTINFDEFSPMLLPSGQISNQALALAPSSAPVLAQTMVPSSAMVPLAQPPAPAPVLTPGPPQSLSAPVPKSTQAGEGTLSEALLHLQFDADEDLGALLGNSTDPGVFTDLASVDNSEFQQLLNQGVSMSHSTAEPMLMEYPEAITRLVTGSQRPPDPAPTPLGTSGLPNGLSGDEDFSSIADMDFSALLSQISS
# UniProt O88746: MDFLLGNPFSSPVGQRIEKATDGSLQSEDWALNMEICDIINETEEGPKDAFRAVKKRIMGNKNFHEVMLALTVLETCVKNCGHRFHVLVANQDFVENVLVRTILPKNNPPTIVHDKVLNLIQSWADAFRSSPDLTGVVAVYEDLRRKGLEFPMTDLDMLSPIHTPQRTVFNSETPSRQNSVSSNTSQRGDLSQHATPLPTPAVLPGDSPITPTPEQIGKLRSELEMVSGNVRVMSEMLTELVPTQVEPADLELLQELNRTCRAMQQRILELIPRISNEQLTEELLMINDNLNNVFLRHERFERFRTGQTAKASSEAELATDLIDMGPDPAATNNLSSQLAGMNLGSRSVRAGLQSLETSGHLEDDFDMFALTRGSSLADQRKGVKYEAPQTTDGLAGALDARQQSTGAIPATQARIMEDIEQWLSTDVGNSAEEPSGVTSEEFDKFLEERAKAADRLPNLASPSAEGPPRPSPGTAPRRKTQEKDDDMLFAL
# B1: SH3RF1 (protein, UniProt Q69ZI1 1-892)
# chain: MDESALLDLLECPVCLERLDASAKVLPCQHTFCKRCLLGIVGSRNELRCPECRTLVGSGVDELPSNILLVRLLDGIKQRPWKPGPGGGGGTTCTNTLRAQGSTVVNCGSKDLQSSQCGQQPRVQAWSPPVRGIPQLPCAKALYNYEGKEPGDLKFSKGDIIILRRQVDENWYHGEVSGVHGFFPTNFVQIIKPLPQPPPQCKALYDFEVKDKEADKDCLPFAKDDVLTVIRRVDENWAEGMLADKIGIFPISYVEFNSAAKQLIEWDKPPVPGVDTAECPSATAQSTSASKHPDTKKNTRKRHSFTSLTMANKSSQGSQNRHSMEISPPVLISSSNPTAAARISELSGLSCSAPSQVHISTTGLIVTPPPSSPVTTGPAFTFPSDVPYQAALGSMNPPLPPPPLLAATVLASTPSGATAAVAAAAAAAAAAGMGPRPVMGSSEQIAHLRPQTRPSVYVAIYPYTPRKEDELELRKGEMFLVFERCQDGWYKGTSMHTSKIGVFPGNYVAPVTRAVTNASQAKVSMSTAGQASRGVTMVSPSTAGGPTQKPQGNGVAGNPSVVPTAVVSAAHIQTSPQAKVLLHMSGQMTVNQARNAVRTVAAHSQERPTAAVTPIQVQNAACLGPASVGLPHHSLASQPLPPMAGPAAHGAAVSISRTNAPMACAAGASLASPNMTSAMLETEPSGRTVTILPGLPTSPESAASACGNSSAGKPDKDSKKEKKGLLKLLSGASTKRKPRVSPPASPTLDVELGAGEAPLQGAVGPELPLGGSHGRVGSCPTDGDGPVAAGTAALAQDAFHRKTSSLDSAVPIAPPPRQACSSLGPVMNEARPVVCERHRVVVSYPPQSEAELELKEGDIVFVHKKREDGWFKGTLQRNGKTGLFPGSFVENI
# B2: EPN2 (protein, UniProt Q8CHU3 1-595)
# chain: MTTSSIRRQMKNIVNNYSEAEIKVREATSNDPWGPSSSLMTEIADLTYNVVAFSEIMSMVWKRLNDHGKNWRHVYKALTLLDYLIKTGSERVAQQCRENIFAIQTLKDFQYIDRDGKDQGINVREKSKQLVALLKDEERLKVERVQALKTKERMAQVATGVGSNQITFGRGSSQPNLSTSYSEQEYGKAGGSPASYHGSTSPRVSSELEQARPQTSGEEELQLQLALAMSREVAEQSSESVQTARGSKEERLRRGDDLRLQMALEESRRDTVKVPKKKEAKACCKPGSHSQQTTLLDLMDALPSSGPVTQKTEPWSAGASANQTNPWGGTVAPSNITDPWPSFGTKPAASVDPWGVPTTASTQSVPKNSDPWAASQQPASNAGKTTDAWGAAKPSSASGSFELFSNFNGTVKDDFSEFDNLRTSKKPAESGASVPPQDSRTTSPDLFESQSLTSASSKPSSARKTPESFLGPNAALVNLDSLVTKPAPPAQSLNPFLAPGAAAPAPVNPFQVNQPQPLTLNQLRGSPVLGSSASFGSGPGVETVAPMTSVAPHSSVGASGSSLTPLGPTAMNMVGSVGIPPSAAQSTGTTNPFLL
# B3: VPS37A (protein, UniProt Q8CHS8 1-397)
# chain: MSWLFPLAKSASSSAAGSPAGLTSLQQQKQRLIESLRNSHSSIAEIQKDVEYRLPFTVNNLTININILLPPQFPQEKPVISVYPPIRHHLMDSQGLYVTSPLVSNFTMHSDLGKIIQSLLDEFWKNPPVLAPTSTTFPYLYSNPGGMPPYPSQGFPFLPPYPPPEANRNITSLSVADTVSSSTTSYTAAKPVAPSFGILSSLPLPVPTTESSASVNQNGFGYKMPDIPDAFPELSELSVSQLTDMNEQEEVLLEQFLMLPQLKQIITDKEDLVKNIEELARKNLLLEHSLEGKRQTVLDKYELLLQMKSTFEKKMQRQHELSESCSASALQARLKVAAHEAEEESDNIAEDFLEGKTEIDDFLNSFKEKRTICHCRRAKEEKLHQVIAMHSQFHAPL
# B4: CLINT1 (protein, UniProt Q99KN9 1-631)
# chain: MLIFMYLYVCVCTCTCAFSLCSTNVVMNYSEIESKVREATNDDPWGPSGQLMGEIAKATFMYEQFPELMNMLWSRMLKDNKKNWRRVYKSLLLLAYLIRNGSERVVTSAREHIYDLRSLENYHFVDEHGKDQGINIRQKVKELVEFAQDDDRLREERKKAKKNKDKYVGVSSDSVGGFRYNERYDPEPKSKWDEEWDKNKSAFPFSDKLGELSDKIGSTIDDTISKFRRKDREDSPERCSDSDEEKKARRGRSPKGEFKDEEETVTTKHIHITQATETTTTRHKRTANPSKTIDLGAAAHYTGDKASPDQNASTHTPQSSAKPSVPSSKSSGDLVDLFDGSSQSAGGSADLFGGFADFGSAAASGNFPSQATSGNGDFGDWSAFNQAPSGPVASGGELFGSAPQSAVELISASQPALGPPPAASNSADLFDLMGSSQATMTSSQSMNFSLMSTNTVGLGLPMSRSQNTDMVQKSASKTLPSTWSDPSVNISLDNLLPGMQPSKPQQPSLNTMIQQQNMQQPLNVMTQSFGAVNLSSPSNMLPVRPQTNPLLGGPMPMNMPGVMTGTMGMAPLGNSAGMSQGMVGMNMNMGMSASGMGLSGTMGMGMPSMAMPSGTVQPKQDAFANFANFSK
# B5: SH3BP4 (protein, UniProt Q921I6 1-962)
# chain: MAAQRIRAANASGLPRCKSEGTLIDLSEGFSETSFNDVKVPSPSALLVDNPTPFGNAKEVIAIKDYCPNNFTTLKFSKGDHLYVLDTSGGEWWYAHNTTEMGYIPSSYVQPLNYRNSTLSDSGMIDNLPDSPEEVAKELDLLGGGWTDDQKESGRPYSNNPFWNGVRTNPFLNGNAQPSTDELNPKSTVDLLLFDTGTSSFTESSSATTNSTGNIFDELPATNGLQVEQPVKRDNPFFRSKRSYSLSELSVLQAKSDAPPTSSFFTGLKSPVPEQFQSREDFRTAWLNHRKLARSCHDLDLLGQSPGWGQTQAVETNIVCKLDSSGGSVQLPDTNISIHVPEGHVAPGETQQISMKALLDPPLDLNSDRSTSVSPVVEVKLSNLEVSTFIILEMKVSAEVKGDIFSKSTVVLQCLRSDSKEGPYVPIPLAYSYGDTIQVQLDNLEPCMYLAIVAQGPNILYPSTVWDFINKRVTVGLYGPKHIHPSFKTVVTIFGHDCAPKTLLVSEVTRQAPSPAPVALQLWGKHQFILSRPQDLRVCMFSNMTNYEVKANEQARVVRGFQMKLGKVSRLIFSVISQNPNELSDFTLRVQVKDDQDTILTQFCVQTPQPPPKSAIKPSGQRRFLKKNEVGKIILSPFVVTTKYPTFQDRPVSSLKFGKLLKTVVRQNKSHYLLEYKKGDVVALLSEERIRLKGQLWTKEWYIGYYQGKVGLVHTKNVLVVGKARPSLFSGPELSTSVLLEQILRPCKFLTYIYASVRTLLMENISSWRAFADALGYGNLPLTFFCRAELDSEPERVASVLEKLKEDCNNPDNKDRKSFQKELVMALLKMDCQGLVVRLIQDFVLLTTAVEVAQRWRELAEKLAKVSKQQMDAYESPHRDRNGVVDSEAMWKPAYDFLLTWSHQIGDSYRDVIQELHIGLDKMKNPITRRWKHLTGTLILVNSLDILRAAAFSPADHDDFVI
# Target: NPHP3-BioID2-RAD23B (aa185-409) (human) (UniProt Q7Z494)
# Experiment: proximity labelling; NPHP3-BioID2-RAD23B (aa185-409) stably expressed in IMCD3 Flp-In cells, starvation medium 48 h, 10 uM biotin for the last 24 h; RIPA lysis, StrepTactin Superflow beads 3 h at 4°C, on-bead trypsin digestion, label-free MS; enrichment against the NPHP3-BioID2 control line; 6 replicates per cell line
row,binding,Molecule
1,binds,ITSN2 (from UniProt Q9Z0R6 1-1659)
2,binds,NOTCH1 (from UniProt Q01705 19-2531) (receptor)
3,binds,C2CD3 (from UniProt Q52KB6 1-2323)
4,binds,PIK3C2A (from UniProt Q61194 1-1686) (enzyme)
5,binds,CEP350 (from UniProt E9Q309 1-3095)
6,binds,RELA (from UniProt Q04207 1-549)
7,binds,ITSN1 (from UniProt Q9Z0R4 1-1714)
8,binds,TOM1 (from UniProt O88746 1-492)
9,binds,NEDD1 (from UniProt P33215 1-660)
10,binds,AMER1 (from UniProt Q7TS75 1-1132)
11,binds,TNRC6B (from UniProt Q8BKI2 1-1810)
12,binds,CEP152 (from UniProt A2AUM9 1-1736)
13,binds,STAM2 (from UniProt O88811 1-523)
14,binds,NOTCH2 (from UniProt O35516 26-2473) (receptor)
15,binds,B1
16,binds,B2
17,binds,B3
18,binds,B4
19,binds,B5

# Results are given in words; binding and its absence hold for the method and conditions named. In cells and extracts the contact can be indirect. Here binding means that the protein was enriched with, or labelled near, the bait; the list need not be complete.
